Test results from patent publication US20230312730A1 (ATYR PHARMA, published 2023).
No constants are given. Whether binding was seen depends on the method and setting. Some results given as binding are weak or reduced against the parent protein; the word gives no strength. For some of these results: Where a sequence is shown, tags or fusion partners need not be part of it.

T1: human NRP2 variant 2 (NM_003872) over-expressed on Expi293-hNRP2 clonal cells (human) (UniProt O60462)
T1 sequence: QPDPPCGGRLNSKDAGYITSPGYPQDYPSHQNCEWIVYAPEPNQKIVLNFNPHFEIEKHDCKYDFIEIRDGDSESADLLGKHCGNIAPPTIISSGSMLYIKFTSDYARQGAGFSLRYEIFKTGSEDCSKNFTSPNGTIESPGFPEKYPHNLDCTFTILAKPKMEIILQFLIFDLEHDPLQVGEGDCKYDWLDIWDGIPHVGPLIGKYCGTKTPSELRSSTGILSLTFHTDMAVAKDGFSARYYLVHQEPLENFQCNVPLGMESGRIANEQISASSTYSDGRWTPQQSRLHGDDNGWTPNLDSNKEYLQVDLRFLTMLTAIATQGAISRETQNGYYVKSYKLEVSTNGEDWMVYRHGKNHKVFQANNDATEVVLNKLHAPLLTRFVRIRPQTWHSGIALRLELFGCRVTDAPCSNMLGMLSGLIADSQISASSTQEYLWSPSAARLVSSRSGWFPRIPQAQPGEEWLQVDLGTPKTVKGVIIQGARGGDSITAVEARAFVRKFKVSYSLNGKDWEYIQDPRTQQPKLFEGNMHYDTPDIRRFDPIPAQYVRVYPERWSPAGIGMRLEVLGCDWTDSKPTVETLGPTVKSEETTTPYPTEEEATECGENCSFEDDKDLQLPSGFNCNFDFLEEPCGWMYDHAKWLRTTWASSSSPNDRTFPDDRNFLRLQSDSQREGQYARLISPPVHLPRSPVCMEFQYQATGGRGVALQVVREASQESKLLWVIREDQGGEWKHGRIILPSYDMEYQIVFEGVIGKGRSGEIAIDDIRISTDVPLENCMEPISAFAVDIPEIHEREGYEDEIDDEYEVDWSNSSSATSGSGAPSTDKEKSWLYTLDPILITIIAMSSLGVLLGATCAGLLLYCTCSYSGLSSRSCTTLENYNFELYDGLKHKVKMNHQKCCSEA

B1: recombinant human VEGF-C (R&D Systems #9199-VC) (ligand, UniProt P49767 103-227, looked up)
chain: TEETIKFAAAHYNTEILKSIDNEWRKTQCMPREVCIDVGKEFGVATNTFFKPPCVSVYRCGGCCNSEGLQCMNTSTSYLSKTLFEITVPLSQGPKPVTISFANHTSCRCMSKLDVYRQVHSIIRR
notes: Bought reagent
B2: Sema3F-p95m (Myc-tagged Sema3F-p95 R583A R586A-1359) (ligand, UniProt Q13275 19-779, looked up)
chain: SFPTQDHLPATPRVRLSFKELKATGTAHFFNFLLNTTDYRILLKDEDHDRMYVGSKDYVLSLDLHDINREPLIIHWAASPQRIEECVLSGKDVNGECGNFVRLIQPWNRTHLYVCGTGAYNPMCTYVNRGRRAQATPWTQTQAVRGRGSRATDGALRPMPTAPRQDYIFYLEPERLESGKGKCPYDPKLDTASALINEELYAGVYIDFMGTDAAIFRTLGKQTAMRTDQYNSRWLNDPSFIHAELIPDSAERNDDKLYFFFRERSAEAPQSPAVYARIGRICLNDDGGHCCLVNKWSTFLKARLVCSVPGEDGIETHFDELQDVFVQQTQDVRNPVIYAVFTSSGSVFRGSAVCVYSMADIRMVFNGPFAHKEGPNYQWMPFSGKMPYPRPGTCPGGTFTPSMKSTKDYPDEVINFMRSHPLMYQAVYPLQRRPLVVRTGAPYRLTTIAVDQVDAADGRYEVLFLGTDRGTVQKVIVLPKDDQELEELMLEEVEVFKDPAPVKTMTISSKRQQLYVASAVGVTHLSLHRCQAYGAACADCCLARDPYCAWDGQACSRYTASSKRASRAQDVRHGNPIRQCRGFNSNANKNAVESVQYGVAGSAAFLECQPRSPQATVKWLFQRDPGDRRREIRAEDRFLRTEQGLLLRALQLSDRGLYSCTATENNFKHVVTRVQLHVLGRDAVHAALFPPLSMSAPPPPGAGPPTPPYQELAQLLAQPEVGLIHQYCQGYWRHVPPSPREAPGAPRSPEPQDQKKPRNRR
notes: not shown: Myc tag

Legend:
[1] = target: T1, human NRP2 variant 2 (NM_003872) over-expressed on Expi293-hNRP2 clonal cells (human); assay: flow cytometry on Expi293-hNRP2 clonal cells, rabbit anti-VEGF-C and labelled anti-rabbit secondary
[2] = target: T1, human NRP2 variant 2 (NM_003872) over-expressed on Expi293-hNRP2 clonal cells (human); assay: flow cytometry on Expi293-hNRP2 clonal cells, VEGF-C at 100 nM, rabbit anti-VEGF-C and AF647 anti-rabbit secondary
[3] = target: T1, human NRP2 variant 2 (NM_003872) over-expressed on Expi293-hNRP2 clonal cells (human); assay: flow cytometry on Expi293-hNRP2 clonal cells, AF555 anti-Myc detection
[4] = target: T1, human NRP2 variant 2 (NM_003872) over-expressed on Expi293-hNRP2 clonal cells (human); assay: flow cytometry on Expi293-hNRP2 cells, Sema3F-p95m at 6 nM without antibody, AF555 anti-Myc detection

Row | Binder | binding [1] | binding [2] | binding [3] | binding [4]
1 | B1 | binds | binds |  | 
2 | B2 |  |  | binds | binds
